No constants are given. Whether binding was seen depends on the method and setting. Some entries that bind do so weakly or less than the wild type.
Target: human CXCR4 receptor (human, UniProt P61073 1-352)
Experiment: flow cytometry competition on CXCR4 transfected NIH3T3 cells; competitor: biotinylated murine 515H7
Source text: In a first series of experiments, we constructed and analysed the anti-CXCR4 binding activities of the three first humanized variants. […] Therefore, VH1 was combined with the three different variants of VL (FIG. 23D-F).

The chains behind the UniProt entries cited, without tags or fusion partners.
UniProt P61073: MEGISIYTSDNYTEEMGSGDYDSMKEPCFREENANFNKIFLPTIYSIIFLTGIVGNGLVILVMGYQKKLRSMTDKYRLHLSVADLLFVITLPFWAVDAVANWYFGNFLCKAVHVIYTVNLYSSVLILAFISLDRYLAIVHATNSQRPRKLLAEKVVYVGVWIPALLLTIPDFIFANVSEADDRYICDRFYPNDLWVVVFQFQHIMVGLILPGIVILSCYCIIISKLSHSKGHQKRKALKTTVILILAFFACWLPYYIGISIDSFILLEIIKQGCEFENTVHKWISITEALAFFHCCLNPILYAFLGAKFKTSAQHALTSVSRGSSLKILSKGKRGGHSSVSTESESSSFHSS

binding: binds
B1: humanized antibody Hz515H7 VH2/c515H7 VL (antibody, human IgG1, V domains shown)
VH: EVNLVESGGGLVQPGRSLRLSCTASGFTFTDNYMSWVRQAPGKGLEWLGFIRNKANGYTTDYAASVRGRFTISRDNSKSILYLQMNALRTEDTAVYYCARDVGSNYFDYWGQGTLVTVSS
VL: DIVMSQSPSSLAVSAGEKVTMSCKSSQSLFNSRTRKNYLAWYQQKPGQSPKLLIYWASARDSGVPARFTGSGSETYFTLTISRVQAEDLAVYYCMQSFNLRTFGQGTKVEIKR

Reference: US20130031647A1 (PIERRE FABRE MEDICAMENT, published 2013)
